PubChem BioAssay AID504804, Drosophila RNAi Screening Center | 2011
Test: 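dsRNAs that improve Kc cell survival under doxorubicin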 (primary screen). Cells: Drosophila Kc cells. Knock-down reagent: long dsRNA against Drosophila genes, 0.5 µg dsRNA per well. Timing: 96 h (48 h knock-down, then 48 h drug). Challenge: doxorubicin 5 µg/ml for 48 h, added 48 h after dsRNA. Detection: 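Viability measured as cellular ATP by luminescence after 48 h knock-down then 48 h doxorubicin at 5 µg/ml; unnormalised plate counts for each replicate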. Direction: raw ATP luminescence: higher = more viable cells, protection from doxorubicin. Rule for the call: 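z-score of 2 or more over plate mean in both duplicates, retained only when retests and separate dsRNAs confirm the protection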.
In all, the deposit lists about 19,000 reagents; shown is a random part of those that have a named target and a result. Over the whole deposit, 47 (0.25%) are marked active. 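Signals are raw, not normalised; exact z-scores behind calls not deposited; actives needed confirmation, so some wells reaching 2 SD are inactive.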 A number with no mark means an inactive call. Names joined by + are all predicted targets of the reagent.

CG10602 [DRSC02075] scored raw ATP luminescence, replicate 1 = 1.02e5; raw ATP luminescence, replicate 2 = 87050. CG42676 [DRSC08227] scored raw ATP luminescence, replicate 1 = 65163; raw ATP luminescence, replicate 2 = 63343. CG6511 [DRSC10656] scored raw ATP luminescence, replicate 1 = 72527; raw ATP luminescence, replicate 2 = 80593. For Sh3beta [DRSC11001], the entry reads raw ATP luminescence, replicate 1 = 29433; raw ATP luminescence, replicate 2 = 47120. CG8461 [DRSC16424] gave raw ATP luminescence, replicate 1 = 44207; raw ATP luminescence, replicate 2 = 26707. Knock-down of slv [DRSC07685] gave: raw ATP luminescence, replicate 1 = 51717; raw ATP luminescence, replicate 2 = 67933.

eloF [DRSC15162] showed raw ATP luminescence, replicate 1 = 52853; raw ATP luminescence, replicate 2 = 38497. CG5707 [DRSC08573] scored raw ATP luminescence, replicate 1 = 60500; raw ATP luminescence, replicate 2 = 50863. Idgf5 [DRSC06919] scored raw ATP luminescence, replicate 1 = 59987; raw ATP luminescence, replicate 2 = 55617. Depletion of Dred [DRSC11057] gave: raw ATP luminescence, replicate 1 = 79753; raw ATP luminescence, replicate 2 = 75290. Silencing of Dred [DRSC11059] came out at: raw ATP luminescence, replicate 1 = 1.91e5; raw ATP luminescence, replicate 2 = 2.15e5. With knock-down of l(2)37Bb [DRSC02088], the screen gave raw ATP luminescence, replicate 1 = 62973; raw ATP luminescence, replicate 2 = 69943.

bel [DRSC16555] showed raw ATP luminescence, replicate 1 = 65210; raw ATP luminescence, replicate 2 = 71647. Against LamC [DRSC07453], the values are raw ATP luminescence, replicate 1 = 53577; raw ATP luminescence, replicate 2 = 49447. For CG1637 [DRSC18865], the values are raw ATP luminescence, replicate 1 = 2.07e5; raw ATP luminescence, replicate 2 = 2.00e5. For CG1637 [DRSC19749] the deposit lists raw ATP luminescence, replicate 1 = 3.56e5; raw ATP luminescence, replicate 2 = 3.48e5. Against Ir94h [DRSC15232], the values are raw ATP luminescence, replicate 1 = 74480; raw ATP luminescence, replicate 2 = 58450. Depletion of PGRP-LB [DRSC14926] resulted in: raw ATP luminescence, replicate 1 = 48003; raw ATP luminescence, replicate 2 = 34203.

phr [DRSC07662] showed raw ATP luminescence, replicate 1 = 44783; raw ATP luminescence, replicate 2 = 98800. CG12645 [DRSC17851] scored raw ATP luminescence, replicate 1 = 4.27e5; raw ATP luminescence, replicate 2 = 3.74e5.

Laid out differently: 2 of the entries above.
| gene knocked down | dsRNA | raw ATP luminescence, replicate 1 | raw ATP luminescence, replicate 2 |
| --- | --- | --- | --- |
| CG8461 | DRSC16424 | 44207 | 26707 |
| slv | DRSC07685 | 51717 | 67933 |

The list goes on.
CG13310 [DRSC09981] gave raw ATP luminescence, replicate 1 = 91253; raw ATP luminescence, replicate 2 = 86170. After knock-down of Scgdelta [DRSC18544] the results were raw ATP luminescence, replicate 1 = 67700; raw ATP luminescence, replicate 2 = 57510. For cac [DRSC19743], the values are raw ATP luminescence, replicate 1 = 3.61e5; raw ATP luminescence, replicate 2 = 3.69e5. Knock-down of CG8026 [DRSC07055] resulted in: raw ATP luminescence, replicate 1 = 85500; raw ATP luminescence, replicate 2 = 82247. CG8026 [DRSC07056] scored raw ATP luminescence, replicate 1 = 56867; raw ATP luminescence, replicate 2 = 70293. For Lamtor3 [DRSC02815], the values are raw ATP luminescence, replicate 1 = 68247; raw ATP luminescence, replicate 2 = 72597.

CG15646 [DRSC19682] scored raw ATP luminescence, replicate 1 = 3.29e5; raw ATP luminescence, replicate 2 = 2.79e5. Against Srlp [DRSC15890] the deposit lists raw ATP luminescence, replicate 1 = 42887; raw ATP luminescence, replicate 2 = 45723. For Trf4-1 [DRSC17775], the entry reads raw ATP luminescence, replicate 1 = 44010; raw ATP luminescence, replicate 2 = 41010. After knock-down of Parp1 [DRSC07725], the screen gave raw ATP luminescence, replicate 1 = 1.76e5; raw ATP luminescence, replicate 2 = 1.22e5. Knock-down of RpL40 [DRSC00782] gave: raw ATP luminescence, replicate 1 = 23993; raw ATP luminescence, replicate 2 = 19463. For His1:CG33816 + His1:CG33828 + His1:CG33819 + 21 more [DRSC21266], the entry reads raw ATP luminescence, replicate 1 = 3.08e5; raw ATP luminescence, replicate 2 = 2.66e5.

Oatp58Dc [DRSC04363] showed raw ATP luminescence, replicate 1 = 84743; raw ATP luminescence, replicate 2 = 85950. With knock-down of CG3638 [DRSC18533], the record shows raw ATP luminescence, replicate 1 = 37760; raw ATP luminescence, replicate 2 = 28990. With knock-down of CG10730 [DRSC02102], the record shows raw ATP luminescence, replicate 1 = 57850; raw ATP luminescence, replicate 2 = 63673. After knock-down of CG8673 [DRSC03105], the record shows raw ATP luminescence, replicate 1 = 40753; raw ATP luminescence, replicate 2 = 86060.
